From EP0525063B1, “Use of specific fatty acids in the manufacture of a medicament for their Iontophoresis delivery” (priority 1990, dated 1991)
Like-named read-outs stand apart in the source and are kept apart here.

Settings: for Steady State Delivery Rate ± sd: HM-HCl 0.1M, no enhancer
Experimental: Either pig skin or human cadaver skin was used. It was placed in the cell dermal side down.
The receptor solution completely filled the receptor compartment.
All skin was stored frozen.
Each experiment consisted of three phases totaling 66 hours. […]
The injection volume was 10 »l.

Structure (SMILES): CN1CC[C@]23c4c5ccc(O)c4O[C@H]2C(=O)CC[C@H]3[C@H]1C5.Cl [HM-HCl, hydromorphone hydrochloride, reference compound]
- Steady State Delivery Rate ± sd (E/W 0/100, current 0 mA): 9 ± 2 µg/h
- Steady State Delivery Rate ± sd (E/W 0/100, current 1 mA): 1235 ± 151 µg/h
- typical iontophoretic steady state delivery rate (current of 1 mA, without the addition of a fatty acid, human skin or pig skin): about 1200 »g/hr
